Assay results: publication PMC6465354
No constants are given. Whether binding was seen depends on the method and setting. In cells and extracts the contact can be indirect. Some binding calls cover weakened binding; strength is not graded here. Where a sequence is shown, tags or fusion partners need not be part of it.

T1: Flag-Mint2 WT (rat) (UniProt O35431)
T1 sequence: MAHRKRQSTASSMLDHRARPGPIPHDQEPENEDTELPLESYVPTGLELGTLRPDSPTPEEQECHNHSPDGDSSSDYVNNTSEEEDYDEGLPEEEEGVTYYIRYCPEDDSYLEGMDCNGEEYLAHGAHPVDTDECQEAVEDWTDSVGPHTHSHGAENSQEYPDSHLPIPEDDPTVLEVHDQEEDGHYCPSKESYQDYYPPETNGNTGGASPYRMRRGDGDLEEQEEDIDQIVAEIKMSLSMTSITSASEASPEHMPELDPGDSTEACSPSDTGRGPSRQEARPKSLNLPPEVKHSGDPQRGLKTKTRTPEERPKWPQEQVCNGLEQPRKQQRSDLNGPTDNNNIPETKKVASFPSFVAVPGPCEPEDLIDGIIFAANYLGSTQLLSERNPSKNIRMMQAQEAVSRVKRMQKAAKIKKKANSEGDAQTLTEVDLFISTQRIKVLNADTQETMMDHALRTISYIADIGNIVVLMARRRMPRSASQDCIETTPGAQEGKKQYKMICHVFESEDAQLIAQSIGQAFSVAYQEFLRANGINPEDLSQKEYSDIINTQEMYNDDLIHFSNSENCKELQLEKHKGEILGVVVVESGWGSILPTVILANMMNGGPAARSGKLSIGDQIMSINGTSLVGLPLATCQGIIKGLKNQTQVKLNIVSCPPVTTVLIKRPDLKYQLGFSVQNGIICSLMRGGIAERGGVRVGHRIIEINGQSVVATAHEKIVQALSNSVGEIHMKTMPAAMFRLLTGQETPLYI


Target: T1, Flag-Mint2 WT (rat)
Test: co-IP; HEK293T co-transfected with Flag-Mint2 WT and GFP-Mint2 constructs; lysates 48 h after transfection; IP with Flag antibody, immunoblot for GFP; quantified relative to Mint2 WT

binding	Binder
binds	GFP-tagged Mint2 wild type (rat) (protein, UniProt O35431 1-750) MAHRKRQSTASSMLDHRARPGPIPHDQEPENEDTELPLESYVPTGLELGTLRPDSPTPEEQECHNHSPDGDSSSDYVNNTSEEEDYDEGLPEEEEGVTYYIRYCPEDDSYLEGMDCNGEEYLAHGAHPVDTDECQEAVEDWTDSVGPHTHSHGAENSQEYPDSHLPIPEDDPTVLEVHDQEEDGHYCPSKESYQDYYPPETNGNTGGASPYRMRRGDGDLEEQEEDIDQIVAEIKMSLSMTSITSASEASPEHMPELDPGDSTEACSPSDTGRGPSRQEARPKSLNLPPEVKHSGDPQRGLKTKTRTPEERPKWPQEQVCNGLEQPRKQQRSDLNGPTDNNNIPETKKVASFPSFVAVPGPCEPEDLIDGIIFAANYLGSTQLLSERNPSKNIRMMQAQEAVSRVKRMQKAAKIKKKANSEGDAQTLTEVDLFISTQRIKVLNADTQETMMDHALRTISYIADIGNIVVLMARRRMPRSASQDCIETTPGAQEGKKQYKMICHVFESEDAQLIAQSIGQAFSVAYQEFLRANGINPEDLSQKEYSDIINTQEMYNDDLIHFSNSENCKELQLEKHKGEILGVVVVESGWGSILPTVILANMMNGGPAARSGKLSIGDQIMSINGTSLVGLPLATCQGIIKGLKNQTQVKLNIVSCPPVTTVLIKRPDLKYQLGFSVQNGIICSLMRGGIAERGGVRVGHRIIEINGQSVVATAHEKIVQALSNSVGEIHMKTMPAAMFRLLTGQETPLYI
binds	GFP-tagged Mint2 N723S (rat) (protein, UniProt O35431 1-750) MAHRKRQSTASSMLDHRARPGPIPHDQEPENEDTELPLESYVPTGLELGTLRPDSPTPEEQECHNHSPDGDSSSDYVNNTSEEEDYDEGLPEEEEGVTYYIRYCPEDDSYLEGMDCNGEEYLAHGAHPVDTDECQEAVEDWTDSVGPHTHSHGAENSQEYPDSHLPIPEDDPTVLEVHDQEEDGHYCPSKESYQDYYPPETNGNTGGASPYRMRRGDGDLEEQEEDIDQIVAEIKMSLSMTSITSASEASPEHMPELDPGDSTEACSPSDTGRGPSRQEARPKSLNLPPEVKHSGDPQRGLKTKTRTPEERPKWPQEQVCNGLEQPRKQQRSDLNGPTDNNNIPETKKVASFPSFVAVPGPCEPEDLIDGIIFAANYLGSTQLLSERNPSKNIRMMQAQEAVSRVKRMQKAAKIKKKANSEGDAQTLTEVDLFISTQRIKVLNADTQETMMDHALRTISYIADIGNIVVLMARRRMPRSASQDCIETTPGAQEGKKQYKMICHVFESEDAQLIAQSIGQAFSVAYQEFLRANGINPEDLSQKEYSDIINTQEMYNDDLIHFSNSENCKELQLEKHKGEILGVVVVESGWGSILPTVILANMMNGGPAARSGKLSIGDQIMSINGTSLVGLPLATCQGIIKGLKNQTQVKLNIVSCPPVTTVLIKRPDLKYQLGFSVQNGIICSLMRGGIAERGGVRVGHRIIEINGQSVVATAHEKIVQALSSSVGEIHMKTMPAAMFRLLTGQETPLYI
